This passage reports binding results from article PMC5861360.

The target of this assay is Flag-tagged FruBM (Drosophila melanogaster). Kind of assay: co-IP; lysates of S2 cells cotransfected with Flag-FruBM and one V5-tagged protein; precipitated with rabbit anti-Flag antibody (3 h, 4°C) and Dynabeads Protein G; lysis buffer 50 mM HEPES pH 7.5, 100 mM NaCl, 50 mM ZnSO4, 10 mM NaF, 0.2% NP40; western blot with anti-V5.

Results are given in words; binding and its absence hold for the method and conditions named. Binding seen in cells or lysates may run through a third protein. Binding can be weak; no strength is given. Sequences can lack the tags named with a protein.

B1: V5-tagged Usp (Ultraspiracle) (receptor, UniProt P20153 1-508)
chain: MDNCDQDASFRLSHIKEEVKPDISQLNDSNNSSFSPKAESPVPFMQAMSMVHVLPGSNSASSNNNSAGDAQMAQAPNSAGGSAAAAVQQQYPPNHPLSGSKHLCSICGDRASGKHYGVYSCEGCKGFFKRTVRKDLTYACRENRNCIIDKRQRNRCQYCRYQKCLTCGMKREAVQEERQRGARNAAGRLSASGGGSSGPGSVGGSSSQGGGGGGGVSGGMGSGNGSDDFMTNSVSRDFSIERIIEAEQRAETQCGDRALTFLRVGPYSTVQPDYKGAVSALCQVVNKQLFQMVEYARMMPHFAQVPLDDQVILLKAAWIELLIANVAWCSIVSLDDGGAGGGGGGLGHDGSFERRSPGLQPQQLFLNQSFSYHRNSAIKAGVSAIFDRILSELSVKMKRLNLDRRELSCLKAIILYNPDIRGIKSRAEIEMCREKVYACLDEHCRLEHPGDDGRFAQLLLRLPALRSISLKCQDHLFLFRITSDRPLEELFLEQLEAPPPPGLAMKLE
As to B1, the binding entry is “binds”.

B2: V5-tagged EcR-A (receptor, UniProt P34021-2 1-849)
chain: MLTTSGQQQSKQKLSTLPSHILLQQQLAASAGPSSSVSLSPSSSAALTLHVASANGGARETTSAAAVKDKLRPTPTAIKIEPMPDVISVGTVAGGSSVATVVAPAATTTSNKPNSTAAPSTSAAAANGHLVLVPNKRPRLDVTEDWMSTPSPGSVPSSAPPLSPSPGSQNHSYNMSNGYASPMSAGSYDPYSPTGKTGRDDLSPSSSLNGYSANESCDAKKSKKGPAPRVQEELCLVCGDRASGYHYNALTCEGCKGFFRRSVTKSAVYCCKFGRACEMDMYMRRKCQECRLKKCLAVGMRPECVVPENQCAMKRREKKAQKEKDKMTTSPSSQHGGNGSLASGGGQDFVKKEILDLMTCEPPQHATIPLLPDEILAKCQARNIPSLTYNQLAVIYKLIWYQDGYEQPSEEDLRRIMSQPDENESQTDVSFRHITEITILTVQLIVEFAKGLPAFTKIPQEDQITLLKACSSEVMMLRMARRYDHSSDSIFFANNRSYTRDSYKMAGMADNIEDLLHFCRQMFSMKVDNVEYALLTAIVIFSDRPGLEKAQLVEAIQSYYIDTLRIYILNRHCGDSMSLVFYAKLLSILTELRTLGNQNAEMCFSLKLKNRKLPKFLEEIWDVHAIPPSVQSHLQITQEENERLERAERMRASVGGAITAGIDCDSASTSAAAAAAQHQPQPQPQPQPSSLTQNDSQHQTQPQLQPQLPPQLQGQLQPQLQPQLQTQLQPQIQPQPQLLPVSAPVPASVTAPGSLSAVSTSSEYMGGSAAIGPITPATTSSITAAVTASSTTSAVPMGNGVGVGVGVGGNVSMYANAQTAMALMGVALHSHQEQLIGGVAVKSEHSTTA
As to B2, the binding entry is given as “binds”.
